Taken from: PubChem BioAssay AID1508597 (Cure First, 2020)
The deposit covers about 2,100 reagents; below is a random part of them. 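Calls flag viability under 80% in either arm, not effects specific to rucaparib; the reference for percent is not stated.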 Reagent sequences are not shown. Not given: the 100% reference.

- Purpose: 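Knock-downs altering ovarian cancer cell survival with or without PARP inhibitor rucaparib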 (primary screen)
- System: human ovarian carcinoma lines grown from tumours: OCI-P5x (papillary serous) and OCI-C5x (clear cell)
- Knock-down reagent: siRNA pool against human genes, 1.25 pmol siRNA per well
- Duration: 72 h or 96 h, depending on the cell culture
- Conditions: rucaparib 20 µM (about IC30) or vehicle, present until read-out
- Read-out: 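ATP luminescence measured at 72 or 96 h according to the culture, then normalised and expressed as percent viability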
- Scale: viability, normalised: higher = more viable cells remaining
- Call rule: 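a well counts as a hit if its normalised viability is under 80 percent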
- Meaning of the calls: active = viability under 80%; inactive = viability 80% or more

With MED14, rucaparib or vehicle Rucaparib, cell line OCI-C5x (clear cell), technical replicate 1, how do the results read?
viability, normalised (%): 37.2; call: active

For MED14, rucaparib or vehicle Rucaparib, cell line OCI-C5x (clear cell), technical replicate 2, what was measured?
viability, normalised (%): 43.5; call: active

With MED14, rucaparib or vehicle Rucaparib, cell line OCI-C5x (clear cell), technical replicate 3, what was measured?
viability, normalised (%): 54.2; call: active

With MED14, rucaparib or vehicle Rucaparib, cell line OCI-P5x (serous), technical replicate 1, how do the results read?
viability, normalised (%): 61.3; call: active

What did the screen give for MED14, rucaparib or vehicle Rucaparib, cell line OCI-P5x (serous), technical replicate 2?
viability, normalised (%): 38.3; call: active

For MED14, rucaparib or vehicle Rucaparib, cell line OCI-P5x (serous), technical replicate 3, what was measured?
viability, normalised (%): 55.3; call: active

What did the screen give for MED14, rucaparib or vehicle Vehicle, cell line OCI-C5x (clear cell), technical replicate 1?
viability, normalised (%): 51.3; call: active

For MED14, rucaparib or vehicle Vehicle, cell line OCI-C5x (clear cell), technical replicate 2, what does the deposit list?
viability, normalised (%): 46.4; call: active

With MED14, rucaparib or vehicle Vehicle, cell line OCI-C5x (clear cell), technical replicate 3, what was measured?
viability, normalised (%): 60.3; call: active

What is on record for MED14, rucaparib or vehicle Vehicle, cell line OCI-P5x (serous), technical replicate 1?
viability, normalised (%): 58.5; call: active

Which result is listed for MED14, rucaparib or vehicle Vehicle, cell line OCI-P5x (serous), technical replicate 2?
viability, normalised (%): 56.8; call: active

What did the screen give for MED14, rucaparib or vehicle Vehicle, cell line OCI-P5x (serous), technical replicate 3?
viability, normalised (%): 69.3; call: active

With SND1, rucaparib or vehicle Rucaparib, cell line OCI-C5x (clear cell), technical replicate 1, how do the results read?
viability, normalised (%): 47.4; call: active

For SND1, rucaparib or vehicle Rucaparib, cell line OCI-C5x (clear cell), technical replicate 2, what does the deposit list?
viability, normalised (%): 51.4; call: active

How did the screen score SND1, rucaparib or vehicle Rucaparib, cell line OCI-C5x (clear cell), technical replicate 3?
viability, normalised (%): 49.4; call: active

Which result is listed for SND1, rucaparib or vehicle Rucaparib, cell line OCI-P5x (serous), technical replicate 1?
viability, normalised (%): 47.2; call: active

How did the screen score SND1, rucaparib or vehicle Rucaparib, cell line OCI-P5x (serous), technical replicate 2?
viability, normalised (%): 53.2; call: active

For SND1, rucaparib or vehicle Rucaparib, cell line OCI-P5x (serous), technical replicate 3, how do the results read?
viability, normalised (%): 40.8; call: active

With SND1, rucaparib or vehicle Vehicle, cell line OCI-C5x (clear cell), technical replicate 1, how do the results read?
viability, normalised (%): 59.7; call: active

What is on record for SND1, rucaparib or vehicle Vehicle, cell line OCI-C5x (clear cell), technical replicate 2?
viability, normalised (%): 36.3; call: active

Which result is listed for SND1, rucaparib or vehicle Vehicle, cell line OCI-C5x (clear cell), technical replicate 3?
viability, normalised (%): 47.3; call: active

For SND1, rucaparib or vehicle Vehicle, cell line OCI-P5x (serous), technical replicate 1, what does the deposit list?
viability, normalised (%): 44.4; call: active

For SND1, rucaparib or vehicle Vehicle, cell line OCI-P5x (serous), technical replicate 2, what was measured?
viability, normalised (%): 52.5; call: active

With SND1, rucaparib or vehicle Vehicle, cell line OCI-P5x (serous), technical replicate 3, what was measured?
viability, normalised (%): 62.8; call: active
